Results are given in words; binding and its absence hold for the method and conditions named. Binding calls can cover weak binding; strength is not graded here.
Tests used:
[1] = molecular target: ΔN HTRA1 wild type (human HTRA1 lacking the N-terminal IGFBP7-like fragment) (human) (UniProt Q92743); assay: cross-linking; 0.5 µM HTRA1, 50 mM NaPi, 50 mM NaCl pH 8.0, 37 °C, 0.5% glutaraldehyde 2 min; silver staining or Western blot; single proteins or mixtures; both purified
[2] = molecular target: ΔN HTRA1 D174R-S328A (proteolytically inactive corrector variant) (human) (UniProt Q92743); assay: AUC; sedimentation velocity, 2.8 mg/mL protein, 100 mM NaH2PO4, 150 mM NaCl pH 8.0, 50,000 rpm; both purified
[3] = molecular target: ΔN HTRA1 D174R-S328A (proteolytically inactive corrector variant) (human) (UniProt Q92743); assay: SEC-MALS; Superdex 200 Increase 10/300, 2x PBS, 56 µl of 10 mg/ml protein (273 µM monomer equivalent; A173T 6.5 mg/ml, 178 µM); single proteins or D174R-S328A + R274Q mixed at a 1:1 ratio; both purified
[4] = molecular target: ΔN HTRA1 D174R-S328A (proteolytically inactive corrector variant) (human) (UniProt Q92743); assay: cross-linking; 0.5 µM HTRA1, 50 mM NaPi, 50 mM NaCl pH 8.0, 37 °C, 0.5% glutaraldehyde 2 min; silver staining or Western blot; single proteins or mixtures; both purified
[5] = molecular target: ΔN HTRA1 D174R-S328A (proteolytically inactive corrector variant) (human) (UniProt Q92743); assay: SEC; analytical SEC, Agilent AdvanceBio SEC 300 Å column, 2x PBS, 10 µl of 10 mg/ml protein (273 µM monomer equivalent; A173T 6.5 mg/ml, 178 µM); single proteins or mixtures; both purified
[6] = molecular target: ΔN HTRA1 D174R-S328A (proteolytically inactive corrector variant) (human) (UniProt Q92743); assay: native MS; 200 mM ammonium acetate pH 6.8, complex formation at 0.5 to 25 µM protein; D174R-S328A (1.5 µM) titrated with R274Q; both purified

By UniProt entry, the sequences of proteins in these tests, tags left out. Where a name states a change or a piece, a line headed by the entry shows the natural chain unless it says otherwise.
UniProt Q92743: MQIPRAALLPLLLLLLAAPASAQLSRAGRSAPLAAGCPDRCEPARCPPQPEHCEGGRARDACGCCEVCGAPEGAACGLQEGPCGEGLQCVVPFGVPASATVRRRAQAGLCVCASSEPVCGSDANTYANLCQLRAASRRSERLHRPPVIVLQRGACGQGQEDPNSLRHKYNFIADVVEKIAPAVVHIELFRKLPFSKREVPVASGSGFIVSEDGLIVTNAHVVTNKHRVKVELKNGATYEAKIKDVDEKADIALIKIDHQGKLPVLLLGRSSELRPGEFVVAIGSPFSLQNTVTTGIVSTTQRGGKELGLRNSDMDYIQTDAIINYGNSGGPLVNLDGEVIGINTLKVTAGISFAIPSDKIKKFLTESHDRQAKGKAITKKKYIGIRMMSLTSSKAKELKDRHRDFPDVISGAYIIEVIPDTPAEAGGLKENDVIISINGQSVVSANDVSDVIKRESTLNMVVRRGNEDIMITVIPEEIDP

Measured: binding

ΔN HTRA1 D174R-S328A (proteolytically inactive corrector variant) (from UniProt Q92743) (domain or fragment)
binds: [1]

ΔN HTRA1 R274Q (from UniProt Q92743) (domain or fragment)
not listed: [1]
binds: all other assays above

Reference: article PMC11252331
